Experimental data: publication PMC7578860
Results are given in words; binding and its absence hold for the method and conditions named. In cells and extracts the contact can be indirect. These calls come from enrichment with a bait or labelling near it, and not all partners need be listed.

Target: T1, F‐box/WD Repeat‐Containing Protein 2 (FBXW2), endogenous in mouse macrophages (mouse (endogenous in peritoneal macrophages and BMDMs)) (UniProt Q60584)
T1 sequence: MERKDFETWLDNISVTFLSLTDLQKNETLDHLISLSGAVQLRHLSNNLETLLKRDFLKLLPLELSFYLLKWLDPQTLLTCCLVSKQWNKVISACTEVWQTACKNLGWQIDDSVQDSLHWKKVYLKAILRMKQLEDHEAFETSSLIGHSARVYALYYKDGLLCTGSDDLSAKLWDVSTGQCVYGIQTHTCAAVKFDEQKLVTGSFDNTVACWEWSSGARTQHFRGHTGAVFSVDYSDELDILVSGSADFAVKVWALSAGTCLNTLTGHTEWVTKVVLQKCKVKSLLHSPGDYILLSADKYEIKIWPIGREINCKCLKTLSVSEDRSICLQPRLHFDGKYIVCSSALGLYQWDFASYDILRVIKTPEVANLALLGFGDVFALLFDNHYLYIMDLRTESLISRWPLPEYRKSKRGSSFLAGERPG
Assay: affinity purification with mass spectrometry; co-IP of FBXW2 (against IgG) from cellular extracts of peritoneal macrophages of HFD-treated mice; silver-stained additional bands subjected to LC-MS/MS

B1: KH‐type splicing regulatory protein (KSRP), endogenous in mouse macrophages (protein, UniProt Q3U0V1 1-748)
chain: MSDYNTGGPPPGPPPPAGGGGGAAGAGGGPPPGPPGAGDRGGGGPGGGGPGGGGASGGPSQPPGGGGPGIRKDAFADAVQRARQIAAKIGGDAATTVNNNTPDFGFGGQKRQLEDGDQPDSKKLASQGDSIGSQLGPIHPPPRTSMTEEYRVPDGMVGLIIGRGGEQINKIQQDSGCKVQISPDSGGLPERSVSLTGAPESVQKAKMMLDDIVSRGRGGPPGQFHDNANGGQNGTVQEIMIPAGKAGLVIGKGGETIKQLQERAGVKMILIQDGSQNTNVDKPLRIIGDPYKVQQACEMVMDILRERDQGGFGDRNEYGSRVGGGIDVPVPRHSVGVVIGRSGEMIKKIQNDAGVRIQFKQDDGTGPEKIAHIMGPPDRCEHAARIINDLLQSLRSGPPGPPGAPGMPPGGRGRGRGQGNWGPPGGEMTFSIPTHKCGLVIGRGGENVKAINQQTGAFVEISRQLPPNGDPNFKLFVIRGSPQQIDHAKQLIEEKIEGPLCPVGPGPGGPGPAGPMGPFNPGPFNQGPPGAPPHAGGPPPHQYPPQGWGNTYPQWQPPAPHDPNKAAAAATDPNAAWAAYYSHYYQQPPGPVPGPAPAPAAPPAQGEPPQPPPTGQSDYTKAWEEYYKKIGQQPQQPGAPPQQDYTKAWEEYYKKQAQVATGGGPGAPPGSQPDYSAAWAEYYRQQAAYYGQTPGPGGPQPPPTQQGQQQASGNCHPPPPPFSFQPPATVHPALVGSAGNPFPCGVCP
For B1, the binding was “binds”.
